{
  "sequences": {"note": "Protein sequences, listed by entry. Tags and fused reporters are not part of them.", "UniProt P37238": "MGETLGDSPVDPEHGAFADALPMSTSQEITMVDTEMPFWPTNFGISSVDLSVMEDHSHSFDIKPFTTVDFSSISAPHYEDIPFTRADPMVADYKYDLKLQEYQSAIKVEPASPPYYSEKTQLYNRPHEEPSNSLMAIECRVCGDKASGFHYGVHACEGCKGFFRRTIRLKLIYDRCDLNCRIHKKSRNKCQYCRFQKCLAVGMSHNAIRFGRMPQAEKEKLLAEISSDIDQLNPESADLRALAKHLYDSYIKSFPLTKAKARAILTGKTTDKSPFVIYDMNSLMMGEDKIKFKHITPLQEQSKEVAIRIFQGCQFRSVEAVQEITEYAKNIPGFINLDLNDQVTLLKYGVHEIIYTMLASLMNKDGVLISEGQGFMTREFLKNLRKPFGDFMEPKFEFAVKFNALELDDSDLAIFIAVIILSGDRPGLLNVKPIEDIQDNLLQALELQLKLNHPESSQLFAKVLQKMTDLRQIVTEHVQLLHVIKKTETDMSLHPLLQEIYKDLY"},
  "source": "paper PMC12508092",
  "binders": {"B1": {"name": "Ret finger protein (RFP), endogenous in 3T3-L1 cells (protein, UniProt Q62158 1-513)", "chain": "MASGSVAECLQQETTCPVCLQYFVEPMMLDCGHNICCACLARCWGAAETNVSCPQCRETFPQRHMRPNRHLANVTQLVKQLRTERPSGPGGEMGVCEKHREPLKLYCEQDQMPICVVCDRSREHRGHSVLPLEEAVEGFKEQIQNRLDHLRRVKDLKKRRRAQGEQARAELLSLTQMEREKIVWEFEQLYHSLKEHEYRLLARLEELDLAIYNSINGAITQFSCNISHLSGLIAQLEEKQQQPTRELLQDIGDTLSRAERIRIPEPWITPPDLQEKIHIFAQKCLFLTESLKQFTEKMQSDMEKIQELREAQLYSVDVTLDPDTAYPSLILSDNLRQVRYSYLQQDLPDNPERFNLFPCVLGSPCFIAGRHYWEVEVGDKAKWTIGVCEDSVCRKGGVTSAPQNGFWAVSLWYGKEYWALTSPMTALPLRTPLQRVGIFLDYDAGEVSFYNVTERCHTFTFSHATFCGPVRPYFSLSYSGGKSAAPLIICPMSGIDGFSGHVGNHGHSMETSP"}},
  "target": "PPAR-γ, endogenous in 3T3-L1 cells (mouse (endogenous in 3T3-L1)) (UniProt P37238)",
  "experiment": "proximity ligation; Duolink in situ PLA with anti-RFP and anti-PPAR-γ antibodies on fixed, permeabilised 3T3-L1 cells, differentiated and undifferentiated",
  "note": "No constants are given. Whether binding was seen depends on the method and setting. Binding seen in cells or lysates may run through a third protein. Some binding calls cover weakened binding; strength is not graded here.",
  "data": [
    {"binder": "B1", "values": [
      {"measurement": "binding", "value": "binds"}
    ]}
  ]
}
